Test results reported in PMC6524969, “A nanobody-based molecular toolkit provides new mechanistic insight into clathrin-coat initiation” (eLife, 2019).
Results are given in words; binding and its absence hold for the method and conditions named. In cells and extracts the contact can be indirect. Some binding calls cover weakened binding; strength is not graded here. For some of these results: Tags and fused reporters may be left off the sequences shown. Blank lines part the entries; values can stand above or below the molecule they belong to.

Chains of the proteins cited; added tags and fusions are not shown.
UniProt Q0JRZ9: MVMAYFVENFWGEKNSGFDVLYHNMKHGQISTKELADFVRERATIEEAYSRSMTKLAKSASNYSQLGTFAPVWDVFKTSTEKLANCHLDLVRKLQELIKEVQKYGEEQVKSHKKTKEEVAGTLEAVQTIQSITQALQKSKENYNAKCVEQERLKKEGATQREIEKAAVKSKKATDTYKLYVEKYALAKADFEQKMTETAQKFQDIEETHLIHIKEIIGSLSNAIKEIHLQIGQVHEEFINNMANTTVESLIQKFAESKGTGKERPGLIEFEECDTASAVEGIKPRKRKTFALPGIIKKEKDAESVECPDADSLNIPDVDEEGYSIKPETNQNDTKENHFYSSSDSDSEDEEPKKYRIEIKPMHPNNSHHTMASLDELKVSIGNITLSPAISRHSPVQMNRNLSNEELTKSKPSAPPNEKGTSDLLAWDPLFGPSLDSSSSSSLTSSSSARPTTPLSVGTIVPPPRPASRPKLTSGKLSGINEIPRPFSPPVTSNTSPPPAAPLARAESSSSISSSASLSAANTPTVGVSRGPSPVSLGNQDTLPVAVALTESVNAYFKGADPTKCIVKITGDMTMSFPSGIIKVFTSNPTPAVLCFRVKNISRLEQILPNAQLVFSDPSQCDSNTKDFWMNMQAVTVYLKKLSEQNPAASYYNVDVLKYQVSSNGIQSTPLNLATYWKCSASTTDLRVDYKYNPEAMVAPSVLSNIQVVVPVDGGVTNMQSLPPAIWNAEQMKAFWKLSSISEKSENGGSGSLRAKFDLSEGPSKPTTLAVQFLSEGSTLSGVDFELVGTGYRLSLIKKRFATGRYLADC

Legend:
[1] = biological target: T1, native EPS15 in K-562 cell lysate (human (endogenous in K-562)) (UniProt P42566); assay: co-IP; partners co-recovered with endogenous EPS15/R that was immobilised through its EH domains by His6-Nb E_142 on Ni-NTA-agarose; immunoblots
T1 sequence: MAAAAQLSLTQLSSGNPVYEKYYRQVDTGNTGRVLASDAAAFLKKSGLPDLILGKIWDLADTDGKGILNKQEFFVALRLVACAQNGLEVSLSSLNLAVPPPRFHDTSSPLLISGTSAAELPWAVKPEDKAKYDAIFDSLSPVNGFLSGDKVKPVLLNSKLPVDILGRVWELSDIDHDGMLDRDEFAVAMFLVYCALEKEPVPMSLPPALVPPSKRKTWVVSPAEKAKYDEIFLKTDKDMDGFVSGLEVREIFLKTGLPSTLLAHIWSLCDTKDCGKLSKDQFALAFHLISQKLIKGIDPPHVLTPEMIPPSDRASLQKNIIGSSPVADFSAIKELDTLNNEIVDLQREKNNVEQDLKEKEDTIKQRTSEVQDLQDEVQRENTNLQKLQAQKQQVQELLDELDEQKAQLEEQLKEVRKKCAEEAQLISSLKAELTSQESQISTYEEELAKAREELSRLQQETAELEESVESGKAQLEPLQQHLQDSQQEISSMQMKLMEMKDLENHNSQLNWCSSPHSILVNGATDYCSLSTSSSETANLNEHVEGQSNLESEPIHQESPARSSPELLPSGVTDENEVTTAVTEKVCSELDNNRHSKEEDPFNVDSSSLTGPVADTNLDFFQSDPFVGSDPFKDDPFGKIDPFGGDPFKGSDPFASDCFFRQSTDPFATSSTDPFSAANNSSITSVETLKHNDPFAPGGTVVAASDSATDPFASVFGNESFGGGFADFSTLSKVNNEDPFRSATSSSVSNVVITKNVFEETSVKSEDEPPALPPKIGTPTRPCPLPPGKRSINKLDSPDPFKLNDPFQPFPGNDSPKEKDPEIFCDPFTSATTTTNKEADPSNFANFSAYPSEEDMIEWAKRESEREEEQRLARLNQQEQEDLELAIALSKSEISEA

[2] = biological target: T2, EPS15R in K-562 cell lysate (human (endogenous in K-562)) (UniProt Q9UBC2); assay: as above
T2 sequence: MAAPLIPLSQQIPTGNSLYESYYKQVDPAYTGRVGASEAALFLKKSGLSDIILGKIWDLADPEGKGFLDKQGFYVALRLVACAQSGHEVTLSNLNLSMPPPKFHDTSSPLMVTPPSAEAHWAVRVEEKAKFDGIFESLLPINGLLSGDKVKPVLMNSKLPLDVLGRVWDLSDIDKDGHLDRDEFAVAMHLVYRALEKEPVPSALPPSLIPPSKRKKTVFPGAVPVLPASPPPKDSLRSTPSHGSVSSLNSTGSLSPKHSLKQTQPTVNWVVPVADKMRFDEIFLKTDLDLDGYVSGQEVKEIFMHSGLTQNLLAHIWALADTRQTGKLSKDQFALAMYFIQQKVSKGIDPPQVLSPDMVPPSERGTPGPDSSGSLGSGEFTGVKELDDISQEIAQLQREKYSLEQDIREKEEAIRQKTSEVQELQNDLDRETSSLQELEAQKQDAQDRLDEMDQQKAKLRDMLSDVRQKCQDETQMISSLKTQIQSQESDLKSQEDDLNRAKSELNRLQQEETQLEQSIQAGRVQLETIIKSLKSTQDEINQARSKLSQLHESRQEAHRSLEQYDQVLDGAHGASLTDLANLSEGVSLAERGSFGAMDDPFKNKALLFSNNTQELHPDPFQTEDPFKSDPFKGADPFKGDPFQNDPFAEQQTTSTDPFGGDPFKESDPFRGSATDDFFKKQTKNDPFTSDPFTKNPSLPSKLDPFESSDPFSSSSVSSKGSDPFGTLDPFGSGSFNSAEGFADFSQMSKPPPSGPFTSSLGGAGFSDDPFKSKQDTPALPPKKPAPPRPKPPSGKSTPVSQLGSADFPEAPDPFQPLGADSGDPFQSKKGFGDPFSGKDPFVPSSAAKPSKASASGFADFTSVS

[3] = biological target: T3, GST-EPS15 (1-314) (human) (UniProt P42566); assay: pull-down; increasing amounts of GST-EPS15 (1-314) immobilised on glutathione-Sepharose; HeLa cell Triton X-100 lysate; 4°C, 60 min; immunoblots; only the target purified
T3 sequence: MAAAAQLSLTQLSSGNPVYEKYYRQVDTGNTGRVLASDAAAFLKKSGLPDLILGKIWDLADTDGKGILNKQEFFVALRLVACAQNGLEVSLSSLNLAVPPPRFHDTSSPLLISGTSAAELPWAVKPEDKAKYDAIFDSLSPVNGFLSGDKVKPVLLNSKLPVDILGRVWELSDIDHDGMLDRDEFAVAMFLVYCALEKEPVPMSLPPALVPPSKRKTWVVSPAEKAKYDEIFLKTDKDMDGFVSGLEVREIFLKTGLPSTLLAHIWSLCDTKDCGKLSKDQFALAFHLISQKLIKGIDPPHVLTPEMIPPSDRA

[4] = biological target: T3, GST-EPS15 (1-314) (human); assay: pull-down; 200 μg immobilised GST-EPS15 (1-314); HeLa lysate supplemented with equimolar (45 μg) or 5-fold molar excess (225 μg) Nb E_142; immunoblots of the partners; only the target purified

B2: clathrin assembly lymphoid myeloid leukemia protein (CALM), HeLa lysate (protein, UniProt Q13492 1-652)
chain: MSGQSLTDRITAAQHSVTGSAVSKTVCKATTHEIMGPKKKHLDYLIQCTNEMNVNIPQLADSLFERTTNSSWVVVFKSLITTHHLMVYGNERFIQYLASRNTLFNLSNFLDKSGLQGYDMSTFIRRYSRYLNEKAVSYRQVAFDFTKVKRGADGVMRTMNTEKLLKTVPIIQNQMDALLDFNVNSNELTNGVINAAFMLLFKDAIRLFAAYNEGIINLLEKYFDMKKNQCKEGLDIYKKFLTRMTRISEFLKVAEQVGIDRGDIPDLSQAPSSLLDALEQHLASLEGKKIKDSTAASRATTLSNAVSSLASTGLSLTKVDEREKQAALEEEQARLKALKEQRLKELAKKPHTSLTTAASPVSTSAGGIMTAPAIDIFSTPSSSNSTSKLPNDLLDLQQPTFHPSVHPMSTASQVASTWGDPFSATVDAVDDAIPSLNPFLTKSSGDVHLSISSDVSTFTTRTPTHEMFVGFTPSPVAQPHPSAGLNVDFESVFGNKSTNVIVDSGGFDELGGLLKPTVASQNQNLPVAKLPPSKLVSDDLDSSLANLVGNLGIGNGTTKNDVNWSQPGEKKLTGGSNWQPKVAPTTAWNAATMAPPVMAYPATTPTGMIGYGIPPQMGSVPVMTQPTLIYSQPVMRPPNPFGPVSGAQIQFM
binding [3]: binds weakly

B3: HIV-1 Rev-binding protein (HRB), HeLa lysate (protein, UniProt P52594 1-562)
chain: MAASAKRKQEEKHLKMLRDMTGLPHNRKCFDCDQRGPTYVNMTVGSFVCTSCSGSLRGLNPPHRVKSISMTTFTQQEIEFLQKHGNEVCKQIWLGLFDDRSSAIPDFRDPQKVKEFLQEKYEKKRWYVPPEQAKVVASVHASISGSSASSTSSTPEVKPLKSLLGDSAPTLHLNKGTPSQSPVVGRSQGQQQEKKQFDLLSDLGSDIFAAPAPQSTATANFANFAHFNSHAAQNSANADFANFDAFGQSSGSSNFGGFPTASHSPFQPQTTGGSAASVNANFAHFDNFPKSSSADFGTFNTSQSHQTASAVSKVSTNKAGLQTADKYAALANLDNIFSAGQGGDQGSGFGTTGKAPVGSVVSVPSQSSASSDKYAALAELDSVFSSAATSSNAYTSTSNASSNVFGTVPVVASAQTQPASSSVPAPFGATPSTNPFVAAAGPSVASSTNPFQTNARGATAATFGTASMSMPTGFGTPAPYSLPTSFSGSFQQPAFPAQAAFPQQTAFSQQPNGAGFAAFGQTKPVVTPFGQVAAAGVSSNPFMTGAPTGQFPTGSSSTNPFL
binding [3]: binds
binding [4]: binds

Results, then the molecule that gave them:

binding [1]: binds
binding [2]: binds
Molecule: FCHO2 (cytosolic, co-precipitated) (from UniProt Q0JRZ9 1-810)

binding [1]: binds
binding [2]: binds
B1: FCHO1 (cytosolic, co-precipitated) (protein, UniProt O14526 1-889)
chain: MSYFGEHFWGEKNHGFEVLYHSVKQGPISTKELADFIRERATIEETYSKAMAKLSKLASNGTPMGTFAPLWEVFRVSSDKLALCHLELTRKLQDLIKDVLRYGEEQLKTHKKCKEEVVSTLDAVQVLSGVSQLLPKSRENYLNRCMDQERLRRESTSQKEMDKAETKTKKAAESLRRSVEKYNSARADFEQKMLDSALRFQAMEETHLRHMKALLGSYAHSVEDTHVQIGQVHEEFKQNIENVSVEMLLRKFAESKGTGREKPGPLDFEAYSAAALQEAMKRLRGAKAFRLPGLSRREREPEPPAAVDFLEPDSGTCPEVDEEGFTVRPDVTQNSTAEPSRFSSSDSDFDDEEPRKFYVHIKPAPARAPACSPEAAAAQLRATAGSLILPPGPGGTMKRHSSRDAAGKPQRPRSAPRTSSCAERLQSEEQVSKNLFGPPLESAFDHEDFTGSSSLGFTSSPSPFSSSSPENVEDSGLDSPSHAAPGPSPDSWVPRPGTPQSPPSCRAPPPEARGIRAPPLPDSPQPLASSPGPWGLEALAGGDLMPAPADPTAREGLAAPPRRLRSRKVSCPLTRSNGDLSRSLSPSPLGSSAASTALERPSFLSQTGHGVSRGPSPVVLGSQDALPIATAFTEYVHAYFRGHSPSCLARVTGELTMTFPAGIVRVFSGTPPPPVLSFRLVHTTAIEHFQPNADLLFSDPSQSDPETKDFWLNMAALTEALQRQAEQNPTASYYNVVLLRYQFSRPGPQSVPLQLSAHWQCGATLTQVSVEYGYRPGATAVPTPLTNVQILLPVGEPVTNVRLQPAATWNLEEKRLTWRLPDVSEAGGSGRLSASWEPLSGPSTPSPVAAQFTSEGTTLSGVDLELVGSGYRMSLVKRRFATGMYLVSC
